PubChem BioAssay AID1508587, Peter MacCallum Cancer Centre – 2020
This is a random part of about 1,600 reagents. 623 of all reagents (39%) were called active. 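Calls are for each duplex; lactate ratios contain extreme outliers.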 The numbers tell different reagents against one gene apart. Further read-outs or replicates are left out here.

- Purpose: 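Follow-up of vemurafenib sensitisers scored by lactate made per cell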 (follow-up of hits)
- Cells: human WM266.4 melanoma cells with a BRAF V600 mutation
- Reagents: single siRNA against human genes, 25 nM
- Time to read-out: 96 h
- Treatment: vemurafenib 300 nM (about IC25), given 48 h after transfection for 48 h
- Measurement: 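Per-cell lactate from absorbance divided by DAPI nucleus counts, compared with and without vemurafenib, relative to non-targeting siRNA, mean of 2 replicates; nuclear counts also give cell number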
- Reading the numbers: lactate per cell, drug vs no drug: higher = less drug-induced drop in lactate per cell; lactate per cell with vemurafenib: higher = more lactate per cell under drug
- Rule for the call: 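Enhancer call for any duplex whose drug versus no-drug per-cell lactate ratio is below 0.55 (2 SD beneath non-targeting average); genes confirmed when at least 2 of their 4 duplexes qualify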

SLC38A6 #1: lactate per cell, drug vs no drug = 0.46; lactate per cell with vemurafenib = 1.68; activity call = active
SLC38A6 #2: lactate per cell, drug vs no drug = 0.33; lactate per cell with vemurafenib = 0.44; activity call = active
SLC38A6 #3: lactate per cell, drug vs no drug = 0.7; lactate per cell with vemurafenib = 0.84; activity call = inactive
SLC38A6 #4: lactate per cell, drug vs no drug = 0.61; lactate per cell with vemurafenib = 1.07; activity call = inactive
H2AC8 #1: lactate per cell, drug vs no drug = 0.65; lactate per cell with vemurafenib = 0.75; activity call = inactive
H2AC8 #2: lactate per cell, drug vs no drug = 0.94; lactate per cell with vemurafenib = 2.4; activity call = inactive
H2AC8 #3: lactate per cell, drug vs no drug = 0.82; lactate per cell with vemurafenib = 1.23; activity call = inactive
H2AC8 #4: lactate per cell, drug vs no drug = 0.68; lactate per cell with vemurafenib = 1.95; activity call = inactive
OSBP2 #1: lactate per cell, drug vs no drug = 0.92; lactate per cell with vemurafenib = 3.39; activity call = inactive
OSBP2 #2: lactate per cell, drug vs no drug = 0.4; lactate per cell with vemurafenib = 0.97; activity call = active
OSBP2 #3: lactate per cell, drug vs no drug = 0.66; lactate per cell with vemurafenib = 0.76; activity call = inactive
OSBP2 #4: lactate per cell, drug vs no drug = 0.77; lactate per cell with vemurafenib = 1.73; activity call = inactive
KCNK6 #1: lactate per cell, drug vs no drug = 0.38; lactate per cell with vemurafenib = 1.54; activity call = active
KCNK6 #2: lactate per cell, drug vs no drug = 0.48; lactate per cell with vemurafenib = 1.09; activity call = active
KCNK6 #3: lactate per cell, drug vs no drug = 0.87; lactate per cell with vemurafenib = 2.68; activity call = inactive
KCNK6 #4: lactate per cell, drug vs no drug = 0.59; lactate per cell with vemurafenib = 1.06; activity call = inactive
AAK1 #1: lactate per cell, drug vs no drug = 0.81; lactate per cell with vemurafenib = 1.81; activity call = inactive
AAK1 #2: lactate per cell, drug vs no drug = 0.32; lactate per cell with vemurafenib = 0.41; activity call = active
AAK1 #3: lactate per cell, drug vs no drug = 0.47; lactate per cell with vemurafenib = 0.84; activity call = active
AAK1 #4: lactate per cell, drug vs no drug = 0.76; lactate per cell with vemurafenib = 1.08; activity call = inactive
IQGAP2 #1: lactate per cell, drug vs no drug = 0.68; lactate per cell with vemurafenib = 1.81; activity call = inactive
IQGAP2 #2: lactate per cell, drug vs no drug = 0.44; lactate per cell with vemurafenib = 0.92; activity call = active
IQGAP2 #3: lactate per cell, drug vs no drug = 0.68; lactate per cell with vemurafenib = 0.98; activity call = inactive
IQGAP2 #4: lactate per cell, drug vs no drug = 0.5; lactate per cell with vemurafenib = 0.76; activity call = active
HSPB6 #1: lactate per cell, drug vs no drug = 0.48; lactate per cell with vemurafenib = 1.23; activity call = active
HSPB6 #2: lactate per cell, drug vs no drug = 0.53; lactate per cell with vemurafenib = 1.54; activity call = active
HSPB6 #3: lactate per cell, drug vs no drug = 0.54; lactate per cell with vemurafenib = 3; activity call = active
HSPB6 #4: lactate per cell, drug vs no drug = 0.43; lactate per cell with vemurafenib = 0.38; activity call = active
YIPF6 #1: lactate per cell, drug vs no drug = 0.57; lactate per cell with vemurafenib = 0.72; activity call = inactive
YIPF6 #2: lactate per cell, drug vs no drug = 0.73; lactate per cell with vemurafenib = 1.12; activity call = inactive
YIPF6 #3: lactate per cell, drug vs no drug = 0.48; lactate per cell with vemurafenib = 0.54; activity call = active
YIPF6 #4: lactate per cell, drug vs no drug = 0.72; lactate per cell with vemurafenib = 1.16; activity call = inactive
SNAPIN #1: lactate per cell, drug vs no drug = 0.7; lactate per cell with vemurafenib = 1.81; activity call = inactive
SNAPIN #2: lactate per cell, drug vs no drug = 0.82; lactate per cell with vemurafenib = 1.25; activity call = inactive
SNAPIN #3: lactate per cell, drug vs no drug = 0.71; lactate per cell with vemurafenib = 2.1; activity call = inactive
SNAPIN #4: lactate per cell, drug vs no drug = 0.48; lactate per cell with vemurafenib = 0.75; activity call = active
